Reference: the supplement of paper PMC11732987, “Enantioselective OTUD7B fragment discovery through chemoproteomics screening and high-throughput optimisation” (Communications Chemistry, 2025)
The list shows a part of the results. The data scatter; read single values as rough.

Chains of the proteins cited; added tags and fusions are not shown. Lines headed by an entry give the natural chain unless they say otherwise; changes in a name come on top. Residues count along the entry.
UniProt P35606: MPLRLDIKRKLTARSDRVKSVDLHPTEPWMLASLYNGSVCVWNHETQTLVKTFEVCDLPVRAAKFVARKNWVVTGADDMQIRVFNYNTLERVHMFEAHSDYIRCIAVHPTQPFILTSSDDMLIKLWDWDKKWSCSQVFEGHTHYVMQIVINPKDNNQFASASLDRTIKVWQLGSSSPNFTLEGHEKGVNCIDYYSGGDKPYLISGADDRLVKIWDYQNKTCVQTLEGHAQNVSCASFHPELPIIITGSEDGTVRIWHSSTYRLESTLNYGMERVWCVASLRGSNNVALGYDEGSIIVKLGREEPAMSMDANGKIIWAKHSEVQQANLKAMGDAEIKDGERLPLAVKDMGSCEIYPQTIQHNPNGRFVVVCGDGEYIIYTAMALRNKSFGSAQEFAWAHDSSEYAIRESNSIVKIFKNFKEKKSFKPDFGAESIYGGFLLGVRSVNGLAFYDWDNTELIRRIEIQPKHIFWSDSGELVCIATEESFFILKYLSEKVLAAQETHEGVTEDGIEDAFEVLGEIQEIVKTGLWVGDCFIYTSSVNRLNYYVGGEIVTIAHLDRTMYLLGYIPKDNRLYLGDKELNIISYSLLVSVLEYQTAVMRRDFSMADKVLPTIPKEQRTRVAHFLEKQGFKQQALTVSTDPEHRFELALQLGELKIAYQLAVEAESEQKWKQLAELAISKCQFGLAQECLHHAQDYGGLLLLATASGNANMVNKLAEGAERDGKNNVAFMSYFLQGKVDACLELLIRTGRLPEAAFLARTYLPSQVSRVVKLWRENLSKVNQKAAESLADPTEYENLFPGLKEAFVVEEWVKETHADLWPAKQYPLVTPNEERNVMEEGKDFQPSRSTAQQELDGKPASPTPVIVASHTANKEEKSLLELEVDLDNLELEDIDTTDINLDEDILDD
UniProt Q9HCK8, 2293-2314: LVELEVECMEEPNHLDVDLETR
UniProt Q9UBL6: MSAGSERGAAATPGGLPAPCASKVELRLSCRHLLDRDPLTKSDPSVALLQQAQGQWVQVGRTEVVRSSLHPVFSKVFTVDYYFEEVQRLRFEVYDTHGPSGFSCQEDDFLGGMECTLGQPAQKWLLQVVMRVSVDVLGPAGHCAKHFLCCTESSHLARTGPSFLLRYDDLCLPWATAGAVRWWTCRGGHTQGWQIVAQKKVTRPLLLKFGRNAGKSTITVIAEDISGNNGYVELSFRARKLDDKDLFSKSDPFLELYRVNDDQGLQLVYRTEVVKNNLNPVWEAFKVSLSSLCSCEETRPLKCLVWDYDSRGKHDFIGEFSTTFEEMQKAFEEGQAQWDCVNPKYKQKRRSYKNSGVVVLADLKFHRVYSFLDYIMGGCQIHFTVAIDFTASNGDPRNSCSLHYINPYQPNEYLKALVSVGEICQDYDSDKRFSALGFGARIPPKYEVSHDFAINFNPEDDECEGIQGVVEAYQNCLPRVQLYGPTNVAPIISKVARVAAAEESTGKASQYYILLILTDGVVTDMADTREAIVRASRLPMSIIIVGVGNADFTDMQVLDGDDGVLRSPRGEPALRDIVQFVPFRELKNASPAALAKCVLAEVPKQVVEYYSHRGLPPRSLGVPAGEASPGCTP
UniProt O75122: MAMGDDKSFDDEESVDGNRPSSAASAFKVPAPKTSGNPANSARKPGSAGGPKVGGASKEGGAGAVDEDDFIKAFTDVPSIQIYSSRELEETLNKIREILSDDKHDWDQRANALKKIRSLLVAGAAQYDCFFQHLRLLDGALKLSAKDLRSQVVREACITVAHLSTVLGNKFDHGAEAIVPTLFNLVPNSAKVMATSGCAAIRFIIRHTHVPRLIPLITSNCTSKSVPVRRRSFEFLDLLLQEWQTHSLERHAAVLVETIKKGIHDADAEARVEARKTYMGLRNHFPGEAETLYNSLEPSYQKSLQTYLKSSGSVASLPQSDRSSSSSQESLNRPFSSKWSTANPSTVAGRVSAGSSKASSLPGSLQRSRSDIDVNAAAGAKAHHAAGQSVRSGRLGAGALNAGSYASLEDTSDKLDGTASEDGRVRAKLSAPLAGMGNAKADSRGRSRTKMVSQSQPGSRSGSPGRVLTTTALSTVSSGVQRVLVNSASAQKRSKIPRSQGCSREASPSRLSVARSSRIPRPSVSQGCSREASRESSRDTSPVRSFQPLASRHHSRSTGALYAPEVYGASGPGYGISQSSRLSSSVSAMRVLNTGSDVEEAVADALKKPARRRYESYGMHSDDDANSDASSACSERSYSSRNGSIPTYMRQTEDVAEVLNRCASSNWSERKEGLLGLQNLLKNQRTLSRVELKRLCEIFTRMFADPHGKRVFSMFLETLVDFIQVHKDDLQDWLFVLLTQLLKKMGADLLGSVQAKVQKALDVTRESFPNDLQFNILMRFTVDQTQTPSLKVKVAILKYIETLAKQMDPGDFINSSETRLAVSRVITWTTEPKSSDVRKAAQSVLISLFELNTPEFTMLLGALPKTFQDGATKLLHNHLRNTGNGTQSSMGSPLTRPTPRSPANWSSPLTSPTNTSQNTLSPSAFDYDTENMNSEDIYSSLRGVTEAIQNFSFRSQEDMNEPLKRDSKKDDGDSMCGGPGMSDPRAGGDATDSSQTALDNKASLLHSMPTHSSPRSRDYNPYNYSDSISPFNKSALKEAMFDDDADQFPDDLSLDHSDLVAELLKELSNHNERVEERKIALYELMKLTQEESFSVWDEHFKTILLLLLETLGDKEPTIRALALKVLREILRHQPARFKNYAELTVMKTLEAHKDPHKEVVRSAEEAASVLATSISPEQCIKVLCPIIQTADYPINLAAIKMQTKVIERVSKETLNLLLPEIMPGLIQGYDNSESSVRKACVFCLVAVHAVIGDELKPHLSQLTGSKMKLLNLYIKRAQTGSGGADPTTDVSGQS
UniProt Q8TD26: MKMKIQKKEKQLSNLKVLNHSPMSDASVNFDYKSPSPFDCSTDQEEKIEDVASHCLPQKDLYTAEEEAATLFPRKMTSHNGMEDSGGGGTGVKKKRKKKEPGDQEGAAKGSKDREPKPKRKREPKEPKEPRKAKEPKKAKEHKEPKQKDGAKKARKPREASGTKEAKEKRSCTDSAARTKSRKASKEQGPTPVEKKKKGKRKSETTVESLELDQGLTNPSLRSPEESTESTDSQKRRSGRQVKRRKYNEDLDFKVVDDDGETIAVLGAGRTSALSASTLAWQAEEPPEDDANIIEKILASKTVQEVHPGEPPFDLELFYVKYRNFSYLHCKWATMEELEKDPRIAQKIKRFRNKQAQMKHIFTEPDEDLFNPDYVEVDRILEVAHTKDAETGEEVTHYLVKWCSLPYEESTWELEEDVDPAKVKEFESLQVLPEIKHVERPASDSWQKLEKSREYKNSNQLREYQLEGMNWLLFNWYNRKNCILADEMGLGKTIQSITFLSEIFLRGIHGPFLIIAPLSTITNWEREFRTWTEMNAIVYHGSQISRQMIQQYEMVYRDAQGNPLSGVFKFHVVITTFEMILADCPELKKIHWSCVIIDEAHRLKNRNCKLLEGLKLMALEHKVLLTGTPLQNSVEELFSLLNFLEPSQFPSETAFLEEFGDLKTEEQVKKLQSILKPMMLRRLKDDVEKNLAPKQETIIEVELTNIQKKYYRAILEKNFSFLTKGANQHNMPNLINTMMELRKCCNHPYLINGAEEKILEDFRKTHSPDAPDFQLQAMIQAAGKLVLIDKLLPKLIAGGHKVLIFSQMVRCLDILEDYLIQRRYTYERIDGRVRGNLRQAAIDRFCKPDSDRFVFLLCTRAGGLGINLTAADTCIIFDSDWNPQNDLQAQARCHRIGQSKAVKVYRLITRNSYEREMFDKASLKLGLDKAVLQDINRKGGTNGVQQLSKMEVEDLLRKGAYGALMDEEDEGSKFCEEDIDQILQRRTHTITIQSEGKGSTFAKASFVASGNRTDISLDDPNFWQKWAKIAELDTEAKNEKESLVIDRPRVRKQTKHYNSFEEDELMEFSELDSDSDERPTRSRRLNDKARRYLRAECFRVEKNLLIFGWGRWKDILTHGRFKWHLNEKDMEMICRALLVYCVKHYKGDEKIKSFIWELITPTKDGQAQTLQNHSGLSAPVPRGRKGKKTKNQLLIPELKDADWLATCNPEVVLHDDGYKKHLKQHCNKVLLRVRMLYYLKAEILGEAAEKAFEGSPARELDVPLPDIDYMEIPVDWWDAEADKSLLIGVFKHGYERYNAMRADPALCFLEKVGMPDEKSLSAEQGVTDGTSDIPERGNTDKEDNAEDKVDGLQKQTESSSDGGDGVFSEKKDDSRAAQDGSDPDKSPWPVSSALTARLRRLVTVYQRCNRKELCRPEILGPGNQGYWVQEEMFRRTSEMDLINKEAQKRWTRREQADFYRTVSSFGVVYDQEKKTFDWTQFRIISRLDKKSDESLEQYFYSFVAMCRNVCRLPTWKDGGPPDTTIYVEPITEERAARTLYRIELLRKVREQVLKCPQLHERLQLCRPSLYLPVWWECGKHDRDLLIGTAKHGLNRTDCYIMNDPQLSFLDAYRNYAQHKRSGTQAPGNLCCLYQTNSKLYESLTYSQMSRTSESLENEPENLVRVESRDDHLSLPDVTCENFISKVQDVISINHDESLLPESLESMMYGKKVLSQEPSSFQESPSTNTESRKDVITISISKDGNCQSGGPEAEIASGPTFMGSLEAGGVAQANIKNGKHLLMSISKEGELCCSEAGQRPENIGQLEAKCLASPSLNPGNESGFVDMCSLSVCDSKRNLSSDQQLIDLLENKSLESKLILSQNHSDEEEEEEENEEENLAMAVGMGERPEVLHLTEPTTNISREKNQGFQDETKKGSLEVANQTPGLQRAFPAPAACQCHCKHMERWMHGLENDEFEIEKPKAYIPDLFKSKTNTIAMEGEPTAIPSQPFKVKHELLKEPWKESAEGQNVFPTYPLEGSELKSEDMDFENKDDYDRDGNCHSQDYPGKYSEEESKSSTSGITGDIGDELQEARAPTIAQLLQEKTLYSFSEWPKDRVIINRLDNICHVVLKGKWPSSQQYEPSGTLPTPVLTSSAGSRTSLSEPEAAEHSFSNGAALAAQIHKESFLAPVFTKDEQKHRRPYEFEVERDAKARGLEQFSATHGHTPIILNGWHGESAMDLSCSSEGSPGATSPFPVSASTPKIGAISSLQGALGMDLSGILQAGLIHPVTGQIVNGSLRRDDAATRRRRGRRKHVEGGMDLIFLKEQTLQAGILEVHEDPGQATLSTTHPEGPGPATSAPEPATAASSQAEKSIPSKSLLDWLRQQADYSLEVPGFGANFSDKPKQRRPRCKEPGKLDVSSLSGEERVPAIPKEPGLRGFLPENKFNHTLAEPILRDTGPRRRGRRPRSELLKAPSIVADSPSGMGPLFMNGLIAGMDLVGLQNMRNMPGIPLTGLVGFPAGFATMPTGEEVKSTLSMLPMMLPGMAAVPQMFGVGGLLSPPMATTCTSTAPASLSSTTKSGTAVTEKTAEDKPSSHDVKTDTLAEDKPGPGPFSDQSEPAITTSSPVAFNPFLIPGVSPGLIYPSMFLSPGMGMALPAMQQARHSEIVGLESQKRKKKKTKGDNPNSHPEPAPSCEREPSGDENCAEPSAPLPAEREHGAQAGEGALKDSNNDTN
UniProt P62633: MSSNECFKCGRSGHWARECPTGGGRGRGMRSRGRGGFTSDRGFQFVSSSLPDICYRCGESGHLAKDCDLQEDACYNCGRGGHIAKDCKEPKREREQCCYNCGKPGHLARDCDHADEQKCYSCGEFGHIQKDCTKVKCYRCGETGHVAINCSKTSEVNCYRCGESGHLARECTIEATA
UniProt Q6P4Q7: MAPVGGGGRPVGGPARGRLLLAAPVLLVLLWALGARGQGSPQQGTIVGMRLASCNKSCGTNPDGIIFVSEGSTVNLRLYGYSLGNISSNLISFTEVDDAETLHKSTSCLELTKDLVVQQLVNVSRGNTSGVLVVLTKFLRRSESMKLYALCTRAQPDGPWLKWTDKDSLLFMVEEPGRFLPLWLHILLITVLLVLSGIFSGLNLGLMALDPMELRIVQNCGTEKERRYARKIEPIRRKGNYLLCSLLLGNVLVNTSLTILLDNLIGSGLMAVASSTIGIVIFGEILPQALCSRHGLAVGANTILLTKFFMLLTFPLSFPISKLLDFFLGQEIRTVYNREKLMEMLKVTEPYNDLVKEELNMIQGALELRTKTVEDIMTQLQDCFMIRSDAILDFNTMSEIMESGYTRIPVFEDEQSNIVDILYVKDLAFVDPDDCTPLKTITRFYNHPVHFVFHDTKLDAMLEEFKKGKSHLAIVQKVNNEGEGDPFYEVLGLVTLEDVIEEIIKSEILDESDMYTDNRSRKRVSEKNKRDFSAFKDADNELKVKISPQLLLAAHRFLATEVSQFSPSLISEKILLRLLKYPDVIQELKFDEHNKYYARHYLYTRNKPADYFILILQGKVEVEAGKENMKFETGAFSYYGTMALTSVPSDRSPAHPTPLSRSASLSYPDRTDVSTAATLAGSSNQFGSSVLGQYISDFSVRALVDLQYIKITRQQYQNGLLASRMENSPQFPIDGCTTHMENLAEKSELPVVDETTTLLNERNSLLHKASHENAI

What was measured:
[1] = compound: ClCC(=O)N[C@@H]1CCCc2ccccc12; assay: log2 mean competition ratio of IA-DTB cysteine labelling (DMSO/compound) (log2 ratio); higher = stronger cysteine engagement by compound; conditions: treatment time: 4 h, cell line lysate: HEK293T
Experimental: (§1)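 IA-DTB competitive cysteine chemoproteomics in HEK293T RIPA lysate. Lysates were treated with compound 29 or 30 at 50 or 200 µM for 4 h, then IA-DTB (500 µM, 1 h), trypsin-digested, NeutrAvidin-enriched and analysed by diaPASEF. Competition ratio = intensity DMSO / intensity compound (n=4 treated, n=64 DMSO); binding: mean log2 CR ≥ 1 and p ≤ 0.05 plus QC filters. Target is the cysteine site.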

[2] = compound: ClCC(=O)N[C@H]1CCCc2ccccc12; assay: as above; conditions: treatment time: 4 h, cell line lysate: HEK293T
Experimental: as §1

COQ8B C415 (UniProt Q96D53) was tested, and the “log2 mean competition ratio” value ([1]; 50 µM) was -0.161, the “log2 mean competition ratio” value ([1]; 200 µM) was 0.107 and the “log2 mean competition ratio” value ([2]; 50 µM) was 0.028. The “log2 mean competition ratio” value ([2]; 200 µM) was 0.106.
COPB2 C56 (UniProt P35606) was tested, and the “log2 mean competition ratio” value ([1]; 50 µM) was -0.198, the “log2 mean competition ratio” value ([1]; 200 µM) was -0.199 and the “log2 mean competition ratio” value ([2]; 50 µM) was -0.511. The “log2 mean competition ratio” value ([2]; 200 µM) was -0.0571.
CHD8 C2300 (UniProt Q9HCK8) was tested, and the “log2 mean competition ratio” value ([1]; 50 µM) was -0.569, the “log2 mean competition ratio” value ([2]; 50 µM) was -0.43 and the “log2 mean competition ratio” value ([2]; 200 µM) was -0.272.
With CLUH C200 the “log2 mean competition ratio” value ([1]; 50 µM) was -0.0484, the “log2 mean competition ratio” value ([1]; 200 µM) was -0.0353 and the “log2 mean competition ratio” value ([2]; 50 µM) was -0.452. The “log2 mean competition ratio” value ([2]; 200 µM) was -0.245.
In the case of CPNE3 C385 (UniProt O75131), the “log2 mean competition ratio” value ([1]; 50 µM) is reported as -0.417, the “log2 mean competition ratio” value ([1]; 200 µM) is reported as -0.149 and the “log2 mean competition ratio” value ([2]; 50 µM) is reported as -0.208. The “log2 mean competition ratio” value ([2]; 200 µM) was -0.147.
For CIP2A C615 (UniProt Q8TCG1), the “log2 mean competition ratio” value ([1]; 50 µM) was -0.0763, the “log2 mean competition ratio” value ([1]; 200 µM) was 0.11 and the “log2 mean competition ratio” value ([2]; 50 µM) was 0.0281. The “log2 mean competition ratio” value ([2]; 200 µM) was 0.191.
With CNST C268 (UniProt Q6PJW8) the “log2 mean competition ratio” value ([1]; 50 µM) was 0.0302, the “log2 mean competition ratio” value ([1]; 200 µM) was 0.298 and the “log2 mean competition ratio” value ([2]; 50 µM) was -0.209. For the same target, the “log2 mean competition ratio” value ([2]; 200 µM) was 0.0173.
For CPNE7 C20 (UniProt Q9UBL6), the “log2 mean competition ratio” value ([1]; 50 µM) was 0.114, the “log2 mean competition ratio” value ([1]; 200 µM) was -0.106 and the “log2 mean competition ratio” value ([2]; 50 µM) was 0.0155. For the same target, the “log2 mean competition ratio” value ([2]; 200 µM) was -0.14.
In the case of CHST14 C117 (UniProt Q8NCH0), the “log2 mean competition ratio” value ([1]; 50 µM) is reported as 0.19, the “log2 mean competition ratio” value ([1]; 200 µM) is reported as 0.092 and the “log2 mean competition ratio” value ([2]; 50 µM) is reported as -0.0145. For the same target, the “log2 mean competition ratio” value ([2]; 200 µM) was -0.0557.
For COPB1 C284 (UniProt P53618), the “log2 mean competition ratio” value ([1]; 50 µM) was -0.0984, the “log2 mean competition ratio” value ([1]; 200 µM) was -0.229 and the “log2 mean competition ratio” value ([2]; 50 µM) was -0.261. The “log2 mean competition ratio” value ([2]; 200 µM) was -0.393.
With CLASP2 C528 (UniProt O75122) the “log2 mean competition ratio” value ([1]; 50 µM) was 0.197, the “log2 mean competition ratio” value ([1]; 200 µM) was 0.121 and the “log2 mean competition ratio” value ([2]; 50 µM) was 0.0854. For the same target, the “log2 mean competition ratio” value ([2]; 200 µM) was -0.0145.
With CHD8 C1913 (UniProt Q9HCK8) the “log2 mean competition ratio” value ([1]; 50 µM) was 0.0407, the “log2 mean competition ratio” value ([1]; 200 µM) was -0.0399 and the “log2 mean competition ratio” value ([2]; 50 µM) was -0.357. For the same target, the “log2 mean competition ratio” value ([2]; 200 µM) was -0.0675.
With CHD6 C172 (UniProt Q8TD26) the “log2 mean competition ratio” value ([1]; 50 µM) was 0.136, the “log2 mean competition ratio” value ([1]; 200 µM) was 0.0896 and the “log2 mean competition ratio” value ([2]; 50 µM) was 0.102. For the same target, the “log2 mean competition ratio” value ([2]; 200 µM) was 0.186.
In the case of CKAP2L C44 (UniProt Q8IYA6), the “log2 mean competition ratio” value ([1]; 50 µM) is reported as 0.00668, the “log2 mean competition ratio” value ([1]; 200 µM) is reported as -0.136 and the “log2 mean competition ratio” value ([2]; 50 µM) is reported as -0.157. For the same target, the “log2 mean competition ratio” value ([2]; 200 µM) was -0.298.
CNBP C161 (UniProt P62633) was tested, and the “log2 mean competition ratio” value ([1]; 50 µM) was 0.11, the “log2 mean competition ratio” value ([1]; 200 µM) was 0.0363 and the “log2 mean competition ratio” value ([2]; 50 µM) was 0.0675. The “log2 mean competition ratio” value ([2]; 200 µM) was 0.00816.
For CLMN C438, the “log2 mean competition ratio” value ([1]; 50 µM) was -0.0539, the “log2 mean competition ratio” value ([1]; 200 µM) was 0.531 and the “log2 mean competition ratio” value ([2]; 50 µM) was 0.0316. The “log2 mean competition ratio” value ([2]; 200 µM) was 0.365.
With CLTC C491 (UniProt Q00610) the “log2 mean competition ratio” value ([1]; 50 µM) was -0.244, the “log2 mean competition ratio” value ([1]; 200 µM) was -0.453 and the “log2 mean competition ratio” value ([2]; 50 µM) was -0.0631. The “log2 mean competition ratio” value ([2]; 200 µM) was -0.402.
In the case of CLUH C732, the “log2 mean competition ratio” value ([1]; 50 µM) is reported as 0.152, the “log2 mean competition ratio” value ([1]; 200 µM) is reported as 0.0733 and the “log2 mean competition ratio” value ([2]; 50 µM) is reported as -0.552. For the same target, the “log2 mean competition ratio” value ([2]; 200 µM) was 0.0378.
In the case of CMAS C394 (UniProt Q8NFW8), the “log2 mean competition ratio” value ([1]; 50 µM) is reported as 0.0136, the “log2 mean competition ratio” value ([1]; 200 µM) is reported as -0.00788 and the “log2 mean competition ratio” value ([2]; 50 µM) is reported as 0.0629. The “log2 mean competition ratio” value ([2]; 200 µM) was -0.0683.
COBLL1 C335 (UniProt Q53SF7) was tested, and the “log2 mean competition ratio” value ([1]; 50 µM) was 0.0179, the “log2 mean competition ratio” value ([1]; 200 µM) was -0.0983 and the “log2 mean competition ratio” value ([2]; 50 µM) was -0.0809. The “log2 mean competition ratio” value ([2]; 200 µM) was -0.0237.
With COQ8A C406 (UniProt Q8NI60) the “log2 mean competition ratio” value ([1]; 50 µM) was -0.0329, the “log2 mean competition ratio” value ([1]; 200 µM) was 0.00814 and the “log2 mean competition ratio” value ([2]; 50 µM) was -0.142. The “log2 mean competition ratio” value ([2]; 200 µM) was -0.00554.
CNNM4 C220 (UniProt Q6P4Q7) was tested, and the “log2 mean competition ratio” value ([1]; 50 µM) was 0.000495, the “log2 mean competition ratio” value ([1]; 200 µM) was 0.00299 and the “log2 mean competition ratio” value ([2]; 50 µM) was -0.124. For the same target, the “log2 mean competition ratio” value ([2]; 200 µM) was -0.000278.
